Publication PMC10145367, “Acute and Transgenerational Effects of Non-Steroidal Anti-Inflammatory Drugs on Daphnia magna” (Toxics, 2023)

System: Daphnia magna
Assay: Acute toxicity (immobilization) of neonates, 24 h toxicity curves
Conditions: 24 h toxicity curve, 4PL model

Compound | Hill Slope
COc1ccc2c(c1)c(CC(=O)O)c(C)n2C(=O)c1ccc(Cl)cc1 [Indomethacin] | 4.731
CC(C)Cc1ccc(C(C)C(=O)O)cc1 (centres unmarked) [Ibuprofen] | 6.341
